According to article PMC3021545, “Insulin Reduces Neuronal Excitability by Turning on GABAA Channels that Generate Tonic Current” (PLoS ONE, 2011):

Test system: T1, insulin-induced high-affinity extrasynaptic GABAA channels (α5, γ2 containing; α5βγ2) of CA1 pyramidal neurons
T1 construct: gene Gabra5
Settings: intact CA1 neurons of insulin-incubated slices; -Vp = 40 mV; pH 7.25; 20-22 °C; 200 µM saclofen in pipette; agonist; Hill coefficient 1.0±0.2; subunits not determined in the single-channel test

NCCCC(=O)O [GABA]
EC50: 0.017 ± 0.004 nM
